Where two headings read alike, the source gives them in different places. Results are given in words; binding and its absence hold for the method and conditions named. In cells and extracts the contact can be indirect. Some results given as binding are weak or reduced against the parent protein; the word gives no strength.
T1: Fibrillarin (FBL) (UniProt P22087)
T1 sequence: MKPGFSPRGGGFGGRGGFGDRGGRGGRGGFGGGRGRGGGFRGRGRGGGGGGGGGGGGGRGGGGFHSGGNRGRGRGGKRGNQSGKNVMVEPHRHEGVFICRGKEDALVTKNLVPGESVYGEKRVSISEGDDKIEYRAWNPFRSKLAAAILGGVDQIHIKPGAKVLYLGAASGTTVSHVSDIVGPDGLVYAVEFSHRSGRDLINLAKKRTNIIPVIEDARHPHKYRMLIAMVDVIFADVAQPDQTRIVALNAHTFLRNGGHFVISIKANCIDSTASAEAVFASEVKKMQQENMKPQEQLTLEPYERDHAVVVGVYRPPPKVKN

By UniProt entry, the sequences of proteins in these tests, tags left out.
UniProt Q99496: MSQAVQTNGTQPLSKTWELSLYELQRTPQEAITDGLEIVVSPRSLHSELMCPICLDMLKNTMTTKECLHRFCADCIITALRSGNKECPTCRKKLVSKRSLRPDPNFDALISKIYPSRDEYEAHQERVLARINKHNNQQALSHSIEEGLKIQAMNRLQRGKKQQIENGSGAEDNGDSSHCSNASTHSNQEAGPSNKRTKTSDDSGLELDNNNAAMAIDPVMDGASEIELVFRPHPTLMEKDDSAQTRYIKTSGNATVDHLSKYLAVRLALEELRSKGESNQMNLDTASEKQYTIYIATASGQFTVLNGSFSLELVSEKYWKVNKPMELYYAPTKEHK

T2: Midnolin (UniProt Q504T8)
T2 sequence: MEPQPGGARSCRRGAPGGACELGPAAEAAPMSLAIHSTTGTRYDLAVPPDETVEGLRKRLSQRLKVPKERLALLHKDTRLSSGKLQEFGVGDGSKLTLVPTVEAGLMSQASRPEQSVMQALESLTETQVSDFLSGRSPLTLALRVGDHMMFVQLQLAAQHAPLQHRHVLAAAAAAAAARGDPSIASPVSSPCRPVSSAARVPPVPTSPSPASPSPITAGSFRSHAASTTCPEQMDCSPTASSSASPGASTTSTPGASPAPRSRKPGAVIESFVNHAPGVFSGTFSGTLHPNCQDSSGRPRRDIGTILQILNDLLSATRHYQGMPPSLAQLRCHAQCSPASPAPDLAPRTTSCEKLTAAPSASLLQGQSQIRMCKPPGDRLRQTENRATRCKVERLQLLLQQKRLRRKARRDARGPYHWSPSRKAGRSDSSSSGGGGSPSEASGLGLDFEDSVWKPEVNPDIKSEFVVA


Key:
Assay in all cases: co-IP
Fibrillarin (FBL) [1] = target: T1, Fibrillarin (FBL)
Fibrillarin (FBL) [2] = target: T1, Fibrillarin (FBL); remark: listed apart in the source
Midnolin = target: T2, Midnolin

| Molecule | binding (Fibrillarin (FBL) [1]) | binding (Fibrillarin (FBL) [2]) | binding (Midnolin) |
| --- | --- | --- | --- |
| RING1B (from UniProt Q99496 1-336) | binds |  |  |
| Midnolin (protein, UniProt Q504T8 1-468) MEPQPGGARSCRRGAPGGACELGPAAEAAPMSLAIHSTTGTRYDLAVPPDETVEGLRKRLSQRLKVPKERLALLHKDTRLSSGKLQEFGVGDGSKLTLVPTVEAGLMSQASRPEQSVMQALESLTETQVSDFLSGRSPLTLALRVGDHMMFVQLQLAAQHAPLQHRHVLAAAAAAAAARGDPSIASPVSSPCRPVSSAARVPPVPTSPSPASPSPITAGSFRSHAASTTCPEQMDCSPTASSSASPGASTTSTPGASPAPRSRKPGAVIESFVNHAPGVFSGTFSGTLHPNCQDSSGRPRRDIGTILQILNDLLSATRHYQGMPPSLAQLRCHAQCSPASPAPDLAPRTTSCEKLTAAPSASLLQGQSQIRMCKPPGDRLRQTENRATRCKVERLQLLLQQKRLRRKARRDARGPYHWSPSRKAGRSDSSSSGGGGSPSEASGLGLDFEDSVWKPEVNPDIKSEFVVA |  | binds |  |
| USP36 (Ubiquitin-Specific Protease 36) (enzyme, UniProt Q9P275 1-1123) MPIVDKLKEALKPGRKDSADDGELGKLLASSAKKVLLQKIEFEPASKSFSYQLEALKSKYVLLNPKTEGASRHKSGDDPPARRQGSEHTYESCGDGVPAPQKVLFPTERLSLRWERVFRVGAGLHNLGNTCFLNATIQCLTYTPPLANYLLSKEHARSCHQGSFCMLCVMQNHIVQAFANSGNAIKPVSFIRDLKKIARHFRFGNQEDAHEFLRYTIDAMQKACLNGCAKLDRQTQATTLVHQIFGGYLRSRVKCSVCKSVSDTYDPYLDVALEIRQAANIVRALELFVKADVLSGENAYMCAKCKKKVPASKRFTIHRTSNVLTLSLKRFANFSGGKITKDVGYPEFLNIRPYMSQNNGDPVMYGLYAVLVHSGYSCHAGHYYCYVKASNGQWYQMNDSLVHSSNVKVVLNQQAYVLFYLRIPGSKKSPEGLISRTGSSSLPGRPSVIPDHSKKNIGNGIISSPLTGKRQDSGTMKKPHTTEEIGVPISRNGSTLGLKSQNGCIPPKLPSGSPSPKLSQTPTHMPTILDDPGKKVKKPAPPQHFSPRTAQGLPGTSNSNSSRSGSQRQGSWDSRDVVLSTSPKLLATATANGHGLKGNDESAGLDRRGSSSSSPEHSASSDSTKAPQTPRSGAAHLCDSQETNCSTAGHSKTPPSGADSKTVKLKSPVLSNTTTEPASTMSPPPAKKLALSAKKASTLWRATGNDLRPPPPSPSSDLTHPMKTSHPVVASTWPVHRARAVSPAPQSSSRLQPPFSPHPTLLSSTPKPPGTSEPRSCSSISTALPQVNEDLVSLPHQLPEASEPPQSPSEKRKKTFVGEPQRLGSETRLPQHIREATAAPHGKRKRKKKKRPEDTAASALQEGQTQRQPGSPMYRREGQAQLPAVRRQEDGTQPQVNGQQVGCVTDGHHASSRKRRRKGAEGLGEEGGLHQDPLRHSCSPMGDGDPEAMEESPRKKKKKKRKQETQRAVEEDGHLKCPRSAKPQDAVVPESSSCAPSANGWCPGDRMGLSQAPPVSWNGERESDVVQELLKYSSDKAYGRKVLTWDGKMSAVSQDAIEDSRQARTETVVDDWDEEFDRGKEKKIKKFKREKRRNFNAFQKLQTRRNFWSVTHPAKAASLSYRR |  | binds | binds |

Source: paper doi:10.1101/2025.06.30.662258
